Measured values as given in PMC9406782.
Results are given in words; binding and its absence hold for the method and conditions named. Binding seen in cells or lysates may run through a third protein. Binding calls can cover weak binding; strength is not graded here.

Chains of the proteins cited; added tags and fusions are not shown. Residues count along the entry.
UniProt P19022, residues 160-906: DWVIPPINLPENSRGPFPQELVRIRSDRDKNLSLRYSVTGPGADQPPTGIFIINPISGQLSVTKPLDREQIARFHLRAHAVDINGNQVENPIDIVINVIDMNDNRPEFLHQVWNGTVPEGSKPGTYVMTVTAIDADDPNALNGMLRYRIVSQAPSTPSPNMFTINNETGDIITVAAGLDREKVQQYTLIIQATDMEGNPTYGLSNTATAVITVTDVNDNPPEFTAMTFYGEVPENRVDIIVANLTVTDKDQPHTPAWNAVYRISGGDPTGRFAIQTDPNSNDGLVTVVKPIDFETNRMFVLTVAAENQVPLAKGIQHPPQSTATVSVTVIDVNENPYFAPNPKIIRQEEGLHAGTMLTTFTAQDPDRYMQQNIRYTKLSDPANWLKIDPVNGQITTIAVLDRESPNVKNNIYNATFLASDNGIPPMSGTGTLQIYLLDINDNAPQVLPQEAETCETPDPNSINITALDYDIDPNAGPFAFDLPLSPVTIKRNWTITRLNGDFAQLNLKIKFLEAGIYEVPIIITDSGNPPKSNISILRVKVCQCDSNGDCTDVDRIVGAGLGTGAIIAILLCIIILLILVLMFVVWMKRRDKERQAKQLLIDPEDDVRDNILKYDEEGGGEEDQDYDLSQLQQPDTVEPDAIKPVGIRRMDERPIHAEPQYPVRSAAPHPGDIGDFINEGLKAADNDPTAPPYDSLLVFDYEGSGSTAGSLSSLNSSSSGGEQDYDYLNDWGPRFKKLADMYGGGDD

B1: plakoglobin (protein, UniProt P14923 1-745)
chain: MEVMNLMEQPIKVTEWQQTYTYDSGIHSGANTCVPSVSSKGIMEEDEACGRQYTLKKTTTYTQGVPPSQGDLEYQMSTTARAKRVREAMCPGVSGEDSSLLLATQVEGQATNLQRLAEPSQLLKSAIVHLINYQDDAELATRALPELTKLLNDEDPVVVTKAAMIVNQLSKKEASRRALMGSPQLVAAVVRTMQNTSDLDTARCTTSILHNLSHHREGLLAIFKSGGIPALVRMLSSPVESVLFYAITTLHNLLLYQEGAKMAVRLADGLQKMVPLLNKNNPKFLAITTDCLQLLAYGNQESKLIILANGGPQALVQIMRNYSYEKLLWTTSRVLKVLSVCPSNKPAIVEAGGMQALGKHLTSNSPRLVQNCLWTLRNLSDVATKQEGLESVLKILVNQLSVDDVNVLTCATGTLSNLTCNNSKNKTLVTQNSGVEALIHAILRAGDKDDITEPAVCALRHLTSRHPEAEMAQNSVRLNYGIPAIVKLLNQPNQWPLVKATIGLIRNLALCPANHAPLQEAAVIPRLVQLLVKAHQDAQRHVAAGTQQPYTDGVRMEEIVEGCTGALHILARDPMNRMEIFRLNTIPLFVQLLYSSVENIQRVAAGVLCELAQDKEAADAIDAEGASAPLMELLHSRNEGTATYAAAVLFRISEDKNPDYRKRVSVELTNSLFKHDPAAWEAAQSMIPINEPYGDDMDATYRPMYSSDVPLDPLEMHMDMDGDYPIDTYSDGLRPPYPTADHMLA

Key:
[1] = target: N-cadherin (human (endogenous in PLC cells and in human HCC tissue)) (UniProt P19022); experiment: co-IP; whole-cell lysates of PLC cells; 1% Triton X-100, RIPA or Empigen immunoprecipitation buffers (150 mM NaCl, 5 mM EDTA or 0.5 mM CaCl2); antibodies against E- or N-cadherin on protein G/A magnetic beads, 4 °C overnight; SDS-PAGE and immunoblot; unrelated mouse myeloma IgG1 as control
[2] = target: E-cadherin (human (endogenous in PLC cells and in human HCC tissue)); experiment: as above

Molecule	binding [1]	binding [2]
vinculin (from UniProt P18206-2)	binds	–
B1	–	binds
